Data from PMC9584626.
These are yes or no findings as the source states them, for the method shown. Binding seen in cells or lysates may run through a third protein. Here binding means that the protein was enriched with, or labelled near, the bait; the list need not be complete.

Amino acid sequences for entries named in this document (tags omitted). A change or cut given only in a name is not applied to a line headed by its entry. Residues count along the entry.
UniProt Q8S926, residues 1-118: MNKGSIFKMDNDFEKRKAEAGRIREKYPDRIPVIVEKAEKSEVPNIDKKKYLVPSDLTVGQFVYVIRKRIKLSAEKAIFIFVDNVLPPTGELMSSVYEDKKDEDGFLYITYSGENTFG
UniProt F4JM19: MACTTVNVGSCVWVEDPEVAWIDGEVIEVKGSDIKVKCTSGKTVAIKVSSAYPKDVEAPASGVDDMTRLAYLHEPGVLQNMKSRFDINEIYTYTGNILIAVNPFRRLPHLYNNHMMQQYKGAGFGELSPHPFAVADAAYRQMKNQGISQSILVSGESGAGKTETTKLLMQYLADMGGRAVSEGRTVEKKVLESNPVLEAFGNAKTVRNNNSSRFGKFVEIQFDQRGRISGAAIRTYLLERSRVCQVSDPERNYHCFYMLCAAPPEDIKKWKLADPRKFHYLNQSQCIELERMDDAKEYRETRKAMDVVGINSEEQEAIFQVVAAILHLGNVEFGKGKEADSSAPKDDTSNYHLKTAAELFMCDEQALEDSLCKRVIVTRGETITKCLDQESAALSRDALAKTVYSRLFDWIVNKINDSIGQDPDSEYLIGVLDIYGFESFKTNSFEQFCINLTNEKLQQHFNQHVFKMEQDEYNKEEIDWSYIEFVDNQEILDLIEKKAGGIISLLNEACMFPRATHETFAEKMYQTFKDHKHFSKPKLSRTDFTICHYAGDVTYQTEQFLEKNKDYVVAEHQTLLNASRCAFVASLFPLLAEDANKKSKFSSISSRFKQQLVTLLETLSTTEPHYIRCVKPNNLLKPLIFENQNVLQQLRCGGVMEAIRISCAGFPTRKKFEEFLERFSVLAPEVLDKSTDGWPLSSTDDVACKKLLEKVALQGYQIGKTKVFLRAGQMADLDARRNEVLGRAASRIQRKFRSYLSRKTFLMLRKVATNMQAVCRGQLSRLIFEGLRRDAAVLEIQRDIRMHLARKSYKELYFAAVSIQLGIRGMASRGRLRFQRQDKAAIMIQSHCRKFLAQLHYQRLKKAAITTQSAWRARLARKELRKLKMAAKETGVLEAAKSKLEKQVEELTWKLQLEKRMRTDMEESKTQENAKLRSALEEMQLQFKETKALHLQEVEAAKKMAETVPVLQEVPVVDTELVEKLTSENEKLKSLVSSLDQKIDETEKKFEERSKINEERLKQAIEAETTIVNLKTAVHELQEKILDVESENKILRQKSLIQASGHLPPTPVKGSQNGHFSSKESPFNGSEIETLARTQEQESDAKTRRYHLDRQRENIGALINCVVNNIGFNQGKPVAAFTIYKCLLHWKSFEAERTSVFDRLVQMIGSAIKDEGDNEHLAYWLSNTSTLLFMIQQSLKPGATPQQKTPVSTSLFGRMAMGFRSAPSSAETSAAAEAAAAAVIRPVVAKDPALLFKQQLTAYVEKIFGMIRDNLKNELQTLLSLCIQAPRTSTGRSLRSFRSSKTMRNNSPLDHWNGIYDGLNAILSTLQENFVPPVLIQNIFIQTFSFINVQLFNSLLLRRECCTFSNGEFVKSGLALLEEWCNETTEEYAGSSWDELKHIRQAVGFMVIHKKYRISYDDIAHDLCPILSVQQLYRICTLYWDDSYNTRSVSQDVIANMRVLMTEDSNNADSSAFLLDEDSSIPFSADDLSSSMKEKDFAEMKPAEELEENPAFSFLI
UniProt Q9LXL1: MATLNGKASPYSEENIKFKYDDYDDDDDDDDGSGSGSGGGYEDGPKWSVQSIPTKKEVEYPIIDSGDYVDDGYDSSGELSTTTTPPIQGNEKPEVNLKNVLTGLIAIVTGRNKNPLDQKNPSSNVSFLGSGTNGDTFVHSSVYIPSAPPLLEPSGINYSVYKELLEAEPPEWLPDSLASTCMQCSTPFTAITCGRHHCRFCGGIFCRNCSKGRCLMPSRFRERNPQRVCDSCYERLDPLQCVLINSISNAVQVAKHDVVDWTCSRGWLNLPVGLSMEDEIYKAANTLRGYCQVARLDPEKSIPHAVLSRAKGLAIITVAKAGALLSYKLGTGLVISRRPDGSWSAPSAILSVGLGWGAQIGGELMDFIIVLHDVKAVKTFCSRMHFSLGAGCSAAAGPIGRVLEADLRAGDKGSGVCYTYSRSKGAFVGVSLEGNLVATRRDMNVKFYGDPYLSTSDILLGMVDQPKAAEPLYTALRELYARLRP

B1: SH3P2 (protein, UniProt Q8VWF1 1-368)
chain: MDAIRKQASRLREQVARQQQAVFKQFGGGGYGSGLADEAELNQHQKLEKLYISTRAAKHYQRDIVRGVEGYIVTGSKQVEIGTKLSEDSRKYGSENTCTNGNVLTRAALNYGRARAQMEKERGNMLKALGTQVAEPLRAMVLGAPLEDARHLAQRYDRMRQEAEAQATEVARRQAKARESQGNPDILMKLESAEAKLHDLKSNMTILGKEAASALASVEDQQQKLTLERLLSMVESERAYHQRVLQILDQLEGEMVSERQRIEAPSTPSSADSMPPPPSYEEANGVFASQMHDTSTDSMGYFLGEVLFPYHGVTDVELSLSTGEYVVVRKVTGSGWAEGECKGKAGWFPYGYIERRERVLASKVSEVF
B2: FRA3 (protein, UniProt Q84W55 1-1101)
chain: MEDRQNDQNDDVFSFFSPSFSAATPSTLFNRSAYSSSSSSGDDESQPSVDDSNKRIDYMIQFLDRRLSEDGNHDGIGDGNGSDSLPEFVGKCGESGIFKVPIRSAVHPNRPPSLDVRPHPLRETQIGRFLRTMTSTERQLWTGGEDGALRVWEFSELYGSGRGLEVEDTAPYKESLGNEFGSAAVVCMIGDEGSRVVWSGHRDGRIRCWRLRGDHGIEEALSWQAHRGPVLSIAISAYGDIWSGSEGGALKVWPWDGALGKSLSLKMEERHMAALAVERSYIDPRNMVSANGFANTLTSDVTFLVSDHTRARVWSASPLTFAIWDARTRDLIKVFNIDGQLENRPENSVYPDFGSEEEGKMKVTASKKEKAQSSLGFFQRSRNAIMGAADAVRRAATKGGFCDDSRKTEAIVISVDGMIWTGSSNGILMRWDGNGNCLQEFAYESSGILCMFTFCSRLWVGYSNGTVQVWDLEGKLLGGWVAHSGPVIKMAIGAGYLFTLANHGGIRGWNVTSPGPLDNVLRAELAGKEFLYSRIENLKILAGTWNVGEGRASTDSLVSWLGCAATGVEIVVVGLQEVEMGAGVLAMSAAKETVGLEGSPLGQWWLDMIGKTLDEGSSFVRVGSRQLAGLLICVWVRHDLKPHVGDVDAAAVPCGFGRAIGNKGAVGVRLRMYDRVLCFVNCHFAAHLEAVNRRNADFDHVYRTMTFSRQSSSLNAGVAGASFGVTMPRGGNALGVNTIEARPELSEADMVIFLGDFNYRLDDITYDETRDFISQRCFDWLREKDQLHTEMEAGNVFQGMREAIIRFPPTYKFERHQAGLAGYDSGEKKRIPAWCDRILYRDNKKHLGAECSLDCPVVSSISQYDACMEVTDSDHKPVRCVFSVKIARVDESVRRQEYGNIINSNKKIKVLLGELSKVPETIVSTNNIILQNQDSTILRITNKSEKNIAFFKIICEGQSKIEEDGQAHDHRARGSFGFPQWLEVSPGTGTIKPNQIAEVSVHLEDFPTVEEFVDGVAQNSWCEDTRDKEVILVLVVHGRFSTETRKHRIRVRHCPRGGPAKNHFNDGTKTSGQINALHRSDYHQLSNTLDVVEQLKNLHSP
B3: NUP93A (protein, UniProt O22224 1-861)
chain: MANDQEMSGWTDLLHSSSKLLEQAAPSSQFPPLQRNLDQLEALSKKLKAKTLRNEAPSQSIAATRLLAREGINAEQLARDLKSFELKTTFEDVFPAEATSVEEYLQQVHEMAMVSAIQEAQKDNVRSFNDYMMKVLEEDWRKEKRDFLQSLSRISMLPKTNMIDTSREAHAGQLVPVGSSPRVSSTPGKELVALANIPIHEKKAYVYGEVVKKLNTSRERGMPFRPAMCFKDAYDTLGAEVTRGKSVNMQKIWQLVQAITGEDSAVRQGVSKRMALAIGARHHLQHGHEKFIMDTIQTHPTQAALGGSVGNLQRIRAFLRIRLRDYGVLDFDSTDARRQPPVDTTWQQIYFCLRTGYYEEAREIARSTRSSQQFAPLLTEWITTDGMVAAESAAIASEECEKMLRMGDRLGRTAYDKKKLLLYTIISGSRRQIERILRDLSTLFNTIEDFLWFKLSCIRDVTGGSSSVVLNDGLAPYSLDDLQAYLNKFEPSYYTKNGKDPLVYPYVLLLSVQLLPAIMHLSKEAGDGGYNIDAVHIAISLVDHSVLSEGSGTGHKLSVMDSNAEASSMIRQYGSMFLHHGDLQMTVEYYAQAAATVGGGQLAWSGRSNVDQQRQRNLMLKQLLTEILLRERGIYFLLGARGSGEEGQLGRFFPDSRLRQQFLVEAAHQCQEAGLYDKSIELQKRVGAFSAALETINKCLSEAICSLARGRLDGESRTSGLILAGNDILETYKYYPEVSLQERERVMEQETILRELEAILSIHKLGRLGNHLDALREIAKLPFLHLDPRMPDATADVFQSASPYFQTCVPDLLKVALTCLDNVPDTDGSIRAMRSKIAGFLASNTHRNWPRDLYEKVARSF
B4: NUP98A (protein, UniProt Q8RY25 1-1041)
chain: MFGSSNPFGQSSGTSPFGSQSLFGQTSNTSSNNPFAPATPFGTSAPFAAQSGSSIFGSTSTGVFGAPQTSSPFASTPTFGASSSPAFGNSTPAFGASPASSPFGGSSGFGQKPLGFSTPQSNPFGNSTQQSQPAFGNTSFGSSTPFGATNTPAFGAPSTPSFGATSTPSFGASSTPAFGATNTPAFGASNSPSFGATNTPAFGASPTPAFGSTGTTFGNTGFGSGGAFGASNTPAFGASGTPAFGASGTPAFGASSTPAFGASSTPAFGASSTPAFGGSSTPSFGASNTSSFSFGSSPAFGQSTSAFGSSAFGSTPSPFGGAQASTPTFGGSGFGQSTFGGQQGGSRAVPYAPTVEADTGTGTQPAGKLESISAMPAYKEKNYEELRWEDYQRGDKGGPLPAGQSPGNAGFGISPSQPNPFSPSPAFGQTSANPTNPFSSSTSTNPFAPQTPTIASSSFGTATSNFGSSPFGVTSSSNLFGSGSSTTTSVFGSSSAFGTTTPSPLFGSSSTPGFGSSSSIFGSAPGQGATPAFGNSQPSTLFNSTPSTGQTGSAFGQTGSAFGQFGQSSAPAFGQNSIFNKPSTGFGNMFSSSSTLTTSSSSPFGQTMPAGVTPFQSAQPGQASNGFGFNNFGQNQAANTTGNAGGLGIFGQGNFGQSPAPLNSVVLQPVAVTNPFGTLPAMPQISINQGGNSPSIQYGISSMPVVDKPAPVRISSLLTSRHLLHRRVRLPARKYRPGENGPKVPFFTDDEESSSTPKADALFIPRENPRALVIRPVQQWSSRDKSILPKEQRPTAPLHDNGKSPDMATDAANHDRNGNGELGATGERIHTSVNANQKPNGTTRSDQASEKERPYKTLSGHRAGEAAIVYEHGADIEALMPKLRQSDYFTEPRIQELAAKERADPGYCRRVRDFVVGRHGYGSIKFMGETDVRRLDLESLVQFNTREVIVYMDESKKPAVGQGLNKPAEVTLLNIKCIDKKTGKQFTEGERVEKYKMMLKKKAEAQGAEFVSFDPVKGEWKFRVEHFSSYKLGDEDEEDGV

Target: mCherry-ATG8E (Arabidopsis thaliana) (UniProt Q8S926)
Test: affinity purification with mass spectrometry; mCherry-ATG8E as bait on RFP-Trap magnetic agarose beads; S4, P4 and P4 + proteinase K fractions from differential centrifugation of 7-d-old seedlings treated with 3 uM Torin 1 for 90 min; 0.1% Nonidet P-40/Igepal added; mCherry alone as control

| Molecule | binding |
| --- | --- |
| Myosin 14 (from UniProt F4JM19 1-1516) | binds |
| CFS1 (cell death related endosomal FYVE/SYLF protein 1), endogenous (from UniProt Q9LXL1) | binds |
| B1 | binds |
| B2 | binds |
| B3 | binds |
| B4 | binds |
